No constants are given. Whether binding was seen depends on the method and setting. Some entries that bind do so weakly or less than the wild type.
Columns and labels:
[1] = molecular target: 4-1BB (antigen of the Octet kinetics) (human) (UniProt Q07011); test: Octet Red 96 kinetics
[2] = molecular target: human 4-1 BB-Fc protein (human) (UniProt Q07011); test: ELISA (legend of FIGS. 1A-1C)
[3] = molecular target: human 4-1 BB-Fc protein (human) (UniProt Q07011); test: ELISA, plate coated with human 4-1BB-Fc
[4] = molecular target: human 4-1 BB-Fc protein (human) (UniProt Q07011); test: ELISA on plate-coated human 4-1BB-Fc (0.1 ug/ml), goat anti-human IgG-HRP, TMB

Amino acid sequences for entries named in this document (tags omitted). A change or cut given only in a name is not applied to a line headed by its entry.
UniProt Q07011: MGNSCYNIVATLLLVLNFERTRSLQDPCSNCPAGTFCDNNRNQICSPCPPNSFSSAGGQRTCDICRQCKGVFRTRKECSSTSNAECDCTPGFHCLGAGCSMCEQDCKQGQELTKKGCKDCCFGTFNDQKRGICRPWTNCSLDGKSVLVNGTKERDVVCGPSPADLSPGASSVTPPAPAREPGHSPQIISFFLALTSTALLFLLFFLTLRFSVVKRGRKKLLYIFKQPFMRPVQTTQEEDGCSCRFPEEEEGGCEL

B1: 41B03 (antibody, human IgG4 S228P, V domains shown)
VH: EVQLLESGGGLVQPGGSLRLSCAASGFTFSSNVMNWVRQAPGKGLEWVSEISHSGSTNYNPSLKSRFTISRDNSKNTLYLQMNSLRAEDTAVYYCAVGAGNLGYWGQGTLVTVSS
VL: EIVLTQSPGTLSLSPGERATLSCQASQDISNYLNWYQQKPGQAPRLLIYGASSRATGIPDRFSGSGSGTDFTLTISRLEPEDFAVYYCQQYNSYPITFGQGTKLEIKR
binding [1]: binds
binding [2]: binds
binding [3]: binds
binding [4]: binds

B2: 41B01 (antibody, human IgG4 S228P, lambda, V domains shown)
VH: EVQLLESGGGLVQPGGSLRLSCAASGFTFSSYDMSWVRQAPGKGLEWVSWISYSGGSIYYADSVKGRFTISRDNSKNTLYLQMNSLRAEDTAVYYCARDGQRNSMREFDYWGQGTLVTVSS
VL: QSVLTQPPSASGTPGRRVTISCSGSSSNIGNNYVTWYQQLPGTAPKLLIYADSHRPSGVPDRFSGSKSGTSASLAISGLRSEDEADYYCATWDYSLSGYVFGGGTKLTVLG
binding [1]: binds

B3: 41B02 (antibody, human IgG4 S228P, lambda, V domains shown)
VH: EVQLLESGGGLVQPGGSLRLSCAASGFTFSGYDMSWVRQAPGKGLEWVSVIYPDDGNTYYADSVKGRFTISRDNSKNTLYLQMNSLRAEDAAVYYCAKHGGQKPTTKSSSAYGMDGWGQGTLVTVSS
VL: QSVLTQPPSASGTPGRRVTISCSGSSSNIGNNYVTWYQQLPGTAPKLLIYADSHRPSGVPDRFSGSKSGTSASLAISGLRSEDEADYYCATWDYSLSGYVFGGGTKLTVLG
binding [1]: binds

From patent US20220242961A1
